{
  "source": "patent US20060233785A1",
  "about": "“Immunointeractive molecules and uses thereof” (priority 2001, published 2006)",
  "test_system": "Hev b 6 specific CD4+ T cell lines",
  "assay": "Oligoclonal T-cell proliferation assay (Example 7)",
  "assay_type": "cell-based, human",
  "settings": "T cell lines of six latex allergic subjects, all cases; 2.5 to 10 μg/ml",
  "note": "Some entries share one result that the patent states for a list of compounds.",
  "data": [
    {"molecule": "rHev b 6: recombinant Hev b 6 (prohevein) expressed in E. coli from pPROEX-HTa with 6-His tag (protein, left off: small tags and cut ends, recombinant Hev b 6 (prohevein) expressed in E. coli from pPROEX-HTa with 6-His tag) EQCGRQAGGKLCPNNLCCSQWGWCGSTDEYCSPDHNCQSNCKDSGEGVGGGSASNVLATYHLYNSQDHGWDLNAASAYCSTWDANKPYSWRSKYGWTAFCGPVGAHGQSSCGKCLSVTNTGTGAKTTVRIVDQCSNGGLDLDVNVFRQLDTDGKGYERGHITVNYQFVDCGDSFNPLFSVMKSSVIN", "values": [
      {"measurement": "stimulation index (SI) of T cell proliferation", "result": "≥ 2.5"}
    ]},
    {"molecule": "mutant rHev b 6: rHev b 6 with cysteine to alanine substitution at amino acid 3 of the mature protein (protein, left off: small tags and cut ends, rHev b 6 with cysteine to alanine substitution at amino acid 3 of the mature protein) EQAGRQAGGKLCPNNLCCSQWGWCGSTDEYCSPDHNCQSNCKDSGEGVGGGSASNVLATYHLYNSQDHGWDLNAASAYCSTWDANKPYSWRSKYGWTAFCGPVGAHGQSSCGKCLSVTNTGTGAKTTVRIVDQCSNGGLDLDVNVFRQLDTDGKGYERGHITVNYQFVDCGDSFNPLFSVMKSSVIN", "values": [
      {"measurement": "stimulation index (SI) of T cell proliferation", "result": "≥ 2.5"}
    ]}
  ]
}
